Experimental data taken from paper PMC12670160, “A drug-repurposing screen of FDA- and EMA-approved drugs identifies two NF-κB inhibitors active against eumycetoma” (Journal of Antimicrobial Chemotherapy, 2025).
Where a name gives a salt, the structure may show the parent alone. Hit rate of the full screen: of about 5,300 compounds, about 130 (2.5%) showed an effect of 50% or more. Some of the results follow.

Test system: M. mycetomatis strain mm55
Conditions: primary screen, metabolic activity vs growth control; 96 h, 2 µM; inhibitor

| Structure (SMILES) | % viability [%] |
| --- | --- |
| CO/N=C(\C(=O)N[C@@H]1C(=O)N2C(C(=O)O)=C(COC(C)=O)CS[C@H]12)c1csc(N)n1 [ONC0005586, cefotaxime] | 73.74 |
| O=C(NCCCN1CCOCC1)c1ccc(Cl)cc1 [ONC0002344, eprobemide] | 106.6 |
| Clc1ccc(C2(c3ccc(-c4cn[nH]c4)cc3)CCNCC2)cc1 [ONC0005013, at7867] | 72.74 |
| COc1cc(CNC(=O)CCCC/C=C/C(C)C)ccc1O [ONC0000673, capsaicin] | 103 |
| C[C@]12CC[C@@H]3c4ccc(O)cc4C[C@@H](CCCCCCCCC[S+]([O-])CCCC(F)(F)C(F)(F)F)[C@H]3[C@@H]1CC[C@@H]2O (some centres unmarked) [ONC0003081, fulvestrant] | 86.05 |
| NC(=O)N/N=C/c1ccc(Oc2ccc(F)cc2)cc1 [ONC0003109, co102862] | 81.41 |
| CNC(=O)[C@@H](NC(=O)[C@H](CC(C)C)[C@H](O)C(=O)NO)C(C)(C)C [ONC0002237, marimastat] | 70.98 |
| NC1=N[C@@]2(c3cc(NC(=O)c4ccc(F)cn4)ccc3F)COC[C@@H]2CS1 [ONC0004876, ly2886721] | 84.29 |
| O=C(CCCl)NCCc1ccccc1 [ONC0002402, fenaclon] | 62.84 |
| NC1(Cc2ccc(Cl)cc2)CCN(c2ncnc3[nH]ccc23)CC1 [ONC0005032, cct128930] | 76.96 |
| CC(=O)Nc1nnc(S(N)(=O)=O)s1 [ONC0000303, acetazolamide] | 89.44 |
| Nc1nc(OCc2cc(Br)cs2)c2[nH]cnc2n1 [ONC0004536, lomeguatrib] | 50.63 |
| CCCCOc1ccc(C(=O)Nc2ccc(F)cc2F)cc1 [ONC0005047, vu 0357121 vu 0357121 vu 0357121] | 78.07 |
| CC(=O)Nc1c(I)cc(I)c(C(=O)O)c1I [ONC0002084, acetrizoic acid] | 74.91 |
| CN1C(C(=O)Nc2ccccn2)C(=O)c2sc(Cl)cc2S1(=O)=O (centres unmarked) [ONC0004064, lornoxicam] | 121 |
| Cc1cc2cc3c(C)cc(=O)oc3c(C)c2o1 [ONC0003238, trioxsalen] | 111.2 |
| CC(C)Oc1ccc2c(=O)c(-c3ccccc3)coc2c1 [ONC0005349, ipriflavone] | 70.4 |
| CC(C)N1CCN(c2ccc(C(=O)c3c(-c4ccc(O)cc4)sc4cc(O)ccc34)cc2)CC1 [ONC0003015, y134] | 103.8 |
| Clc1ccc2nsnc2c1NC1=NCCN1 [ONC0002669, tizanidine] | 52.09 |
| CCCCOc1cc(C(=O)OCCN(CC)CC)ccc1N [ONC0003963, benoxinate hydrochloride] | 99.37 |
| O=S(=O)(O)c1ccc2[nH]c(-c3ccccc3)nc2c1 [ONC0003478, phenylbenzimidazolesulfonicacid] | 71.71 |

| Structure (SMILES) | % viability [%] |
| --- | --- |
| Nc1c[n+](N2CCOCC2)no1 [ONC0003799, linsidomine] | 49.48 |
| CCCCN(CC)c1nc(C)nc2c1c(C)c(C)n2-c1c(C)cc(C)cc1C [ONC0000219, antalarmin] | 83.54 |
| COc1cc(N2CCN(C)CC2)ccc1Nc1ncc2c(n1)N(C)c1ccccc1C(=O)N2C [ONC0001479, erk5in1] | 59.93 |
| C/C=C(/C)C(=O)O[C@H]1C(C)=C[C@]23C(=O)[C@@H](C=C(CO)[C@@H](O)[C@]12O)[C@H]1[C@@H](C[C@H]3C)C1(C)C [ONC0002089, ingenol mebutate] | 57.77 |
| COc1cc([C@H]2Oc3cc([C@H]4Oc5cc(O)cc(O)c5C(=O)[C@@H]4O)ccc3O[C@@H]2CO)ccc1O [ONC0004280, silibinin] | 61.38 |
| CC(C)C(=O)Nc1ncc(-c2cc(C(F)F)nn2-c2c(Cl)cccc2Cl)s1 [ONC0000401, limki3] | 71.78 |
| N#C/C(=C1/SC[C@@H](c2ccc(Cl)cc2Cl)S1)n1ccnc1 [Luliconazole] | 0.7126 |
| O=C(O)[C@H](O)[C@H](O)[C@@H](O)[C@H](O)[C@H](O)CO [ONC0003272, calcium gluceptate] | 92.89 |
| CCOC(=O)C1=C(N)Oc2ccc(Br)cc2C1C(C#N)C(=O)OCC (centres unmarked) [ONC0004440, ha141] | 120.8 |
| Cc1ccc(S(=O)(=O)Nc2nc3ccccc3nc2Nc2ccc3nsnc3c2)cc1 [ONC0005006, xl147 analogue] | 88.37 |
| CC(C)c1ccccc1S(=O)(=O)c1cc(N)c2ncccc2c1[N+](=O)[O-] [ONC0000164, pd160170] | 85.54 |
| CC(C)(C)c1cc(O)c(C(C)(C)C)cc1O [ONC0000112, bhq] | 80.44 |
| CCC(C)c1ccc(NC(=O)Cn2cnc3c2c(=O)n(C)c(=O)n3C)cc1 (centres unmarked) [ONC0001725, tcs5861528] | 79.67 |
| C[C@H]1NCc2cc(-c3ccc4c(=O)c(C(=O)O)cn(C5CC5)c4c3OC(F)F)ccc21 [ONC0001069, garenoxacin mesylate hydrate] | 70.54 |
| CC[C@@H]1C(=O)N(C)c2cnc(Nc3ccc(C(=O)N[C@H]4CC[C@H](N5CCN(CC6CC6)CC5)CC4)cc3OC)nc2N1C(C)C [ONC0005061, bi6727 volasertib] | 89.64 |
| CN(C)CCc1ccc(O)cc1 [ONC0002812, hordenine] | 97.89 |
| COc1cc(SC)ccc1C(=O)N1CCC(Cc2ccccc2)CC1 [ONC0003159, jx401] | 95.56 |
| CC#C[C@]1(O)CC[C@H]2[C@@H]3CCC4=CC(=O)CCC4=C3[C@@H](c3ccc(N(C)C)cc3)C[C@@]21C [ONC0001537, mifepristone] | 81.78 |
| COc1ccc(Cl)cc1C(=O)NCCc1ccc(S(=O)(=O)NC(=O)NC2CCCCC2)cc1 [ONC0005498, glyburide] | 116.7 |
| Nc1nc(=O)n([C@@H]2CS[C@H](CO)O2)cc1F [ONC0004790, emtricitabine] | 100.1 |
| O[C@@H]1CCCC[C@H]1N1CCC(c2ccccc2)CC1 (racemic) [ONC0003549, vesamicol] | 128.8 |

An excerpt of these results, tab-delimited:
Structure (SMILES)	% viability [%]
Nc1c[n+](N2CCOCC2)no1 [ONC0003799, linsidomine]	49.48
CCCCN(CC)c1nc(C)nc2c1c(C)c(C)n2-c1c(C)cc(C)cc1C [ONC0000219, antalarmin]	83.54
COc1cc(N2CCN(C)CC2)ccc1Nc1ncc2c(n1)N(C)c1ccccc1C(=O)N2C [ONC0001479, erk5in1]	59.93
C/C=C(/C)C(=O)O[C@H]1C(C)=C[C@]23C(=O)[C@@H](C=C(CO)[C@@H](O)[C@]12O)[C@H]1[C@@H](C[C@H]3C)C1(C)C [ONC0002089, ingenol mebutate]	57.77
O=C(O)[C@H](O)[C@H](O)[C@@H](O)[C@H](O)[C@H](O)CO [ONC0003272, calcium gluceptate]	92.89
CCOC(=O)C1=C(N)Oc2ccc(Br)cc2C1C(C#N)C(=O)OCC (centres unmarked) [ONC0004440, ha141]	120.8
CC(C)(C)c1cc(O)c(C(C)(C)C)cc1O [ONC0000112, bhq]	80.44
CC[C@@H]1C(=O)N(C)c2cnc(Nc3ccc(C(=O)N[C@H]4CC[C@H](N5CCN(CC6CC6)CC5)CC4)cc3OC)nc2N1C(C)C [ONC0005061, bi6727 volasertib]	89.64
CN(C)CCc1ccc(O)cc1 [ONC0002812, hordenine]	97.89
COc1cc(SC)ccc1C(=O)N1CCC(Cc2ccccc2)CC1 [ONC0003159, jx401]	95.56
CC#C[C@]1(O)CC[C@H]2[C@@H]3CCC4=CC(=O)CCC4=C3[C@@H](c3ccc(N(C)C)cc3)C[C@@]21C [ONC0001537, mifepristone]	81.78
Nc1nc(=O)n([C@@H]2CS[C@H](CO)O2)cc1F [ONC0004790, emtricitabine]	100.1
O[C@@H]1CCCC[C@H]1N1CCC(c2ccccc2)CC1 (racemic) [ONC0003549, vesamicol]	128.8

Going on with the list:

| Structure (SMILES) | % viability [%] |
| --- | --- |
| CCC[C@@H]1C[C@@H](C(=O)N[C@@H]([C@H]2O[C@H](SC)[C@H](OP(=O)(O)O)[C@@H](O)[C@H]2O)[C@H](C)Cl)N(C)C1 [ONC0004393, clindamycin phosphate] | 107.7 |
| CCCCCCNC(=O)n1cc(F)c(=O)[nH]c1=O [ONC0004030, carmofur] | 126.2 |
| CC(C)(C)c1ccc(S(=O)(=O)Nc2ccc(Cl)cc2C(=O)c2cc[n+]([O-])cc2)cc1 [ONC0000979, vercirnon] | 86.34 |
| Cc1ncc(-c2csc(N=C(N)N)n2)[nH]1 [ONC0001152, zaltidine] | 100 |
| COc1cc2c(NC3CCN(C(C)C)CC3)nc(N3CCC(F)(F)CC3)nc2cc1OCCCN1CCCC1 [ONC0001115, unc0642] | 73.79 |
| COc1cccc2c1C(=O)c1c(O)c3c(c(O)c1C2=O)C[C@@](O)(C(=O)CO)C[C@@H]3O[C@H]1C[C@H](N)[C@H](O[C@@H]2CCCCO2)[C@H](C)O1 [ONC0004649, pirarubicin] | 69.04 |
| COc1cc(O)cc([C@@H]2CC(=O)c3c(O)cc(O[C@@H]4O[C@H](CO)[C@@H](O)[C@H](O)[C@H]4O[C@@H]4O[C@@H](C)[C@H](O)[C@@H](O)[C@H]4O)cc3O2)c1 [ONC0004596, neohesperidin] | 71.17 |
| COC(=O)C1=CO[C@@H](O)[C@@H]2C(CO)=CC[C@H]12 [ONC0004731, genipin] | 102.2 |
| COc1cc(NS(=O)(=O)c2ccc(N)cc2)ncn1 [ONC0000667, sulfamonomethoxine] | 141.2 |
| Cc1cc(C)nc(NS(=O)(=O)c2ccc(N)cc2)n1 [ONC0000558, sulfamethazine] | 83.18 |
| CN(C(=O)CN(CCO)CC(=O)N(C)C(C)(C)Cc1ccccc1)C(C)(C)Cc1ccccc1 [ONC0002818, oxethazaine] | 94.15 |
| CC(C)(Oc1ccc(Cl)cc1)C(=O)OCCOC(=O)c1cccnc1 [ONC0004563, etofibrate] | 63.31 |
| COC(=O)N/N=C/c1c[n+]([O-])c2ccccc2[n+]1[O-] [ONC0004019, carbadox] | 74.7 |
| CC(C)N(CC[C@H](c1ccccc1)c1cc(CO)ccc1O)C(C)C [ONC0005033, 5hydroxymethyl tolterodine pnu 200577] | 68.82 |
| O=C(Nc1cnn2ccc(N3CCC[C@@H]3c3cc(F)ccc3F)nc12)N1CC[C@H](O)C1 [ONC0002218, larotrectinib sulfate] | 73.99 |
| CN1CCN2c3ncccc3Cc3ccccc3C2C1 (centres unmarked) [ONC0005327, mirtazapine] | 68.75 |
| Cn1cc(C(F)(F)F)nc1-c1ccc(OCC(O)CNCCOc2ccc(O)c(C(N)=O)c2)cc1 (centres unmarked) [ONC0002140, cgp20712a] | 66.3 |
| CN1C(=O)N[C@H](Cc2c[nH]c3c(Cl)cccc23)C1=O [ONC0000938, necrostatin 2] | 58.02 |
| O=[N+]([O-])C(Br)(CO)CO [ONC0002458, bronopol] | 112.3 |
| C[C@@H]1C/C=C/C=C/C=C/C=C/[C@H](O[C@@H]2O[C@H](C)[C@@H](O)[C@H](N)[C@@H]2O)C[C@@H]2O[C@](O)(C[C@@H](O)C[C@H]3O[C@@H]3/C=C/C(=O)O1)C[C@H](O)[C@H]2C(=O)O [ONC0003917, natamycin] | 71.19 |
